From patent publication US7947270B2, “Removing dental plaque with krill enzymes” (Arcimboldo AB, priority 1992, dated 2011)
For at least one compound, name, drawing or mass did not settle the structure. *1 amine or outer side, *2 acyl side, *3 side chain or, on linkers, in order; H or OH if unused. Where a SMILES comes first, the peptide text is derived from it. CO = O=C([*:1])[*:2]

System: krill-derived multifunctional hydrolase
Assay: protease inhibitors at pH 9.5 against hydrolase preparations
Format: biochemical, antarctic krill
Method: The effectiveness of three protease inhibitors was tested at pH 9.5 against the three hydrolase preparations.

Structure (SMILES): CC(C)[C@H](NC(=O)[C@H](CCCNC(=N)N)NC(=O)N[C@@H](Cc1ccccc1)C(=O)O)C(=O)N[C@H](C=O)CCCNC(=N)N [Antipain] ({Phe-CO}-Arg-Val-Arg-aldehyde)
- % activity remaining (Prep-3, pH 9.5, inhibitor 1 μM): 2%
- % activity remaining (Prep-8, pH 9.5, inhibitor 1 μM): 5%
- % activity remaining (Prep-11, pH 9.5, inhibitor 1 μM): 5%
